# Values from PubChem BioAssay AID1159578 (Peter MacCallum Cancer Centre, 2015)
# Assay: 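Genome-wide hunt for genes controlling movement of lymphatic endothelial cells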 (primary screen)
# Cell system: human lymphatic endothelial cells
# Reagents: siRNA pool against human genes, 40 nM
# Time to read-out: 48 h after transfection
# Measured: 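High-content imaging of dye-stained cells in a scratch assay measures filled wound area and nuclei per well; duplicate means given as ratio to mock and robust z-score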
# Direction: migration robust z-score: higher = faster migration into the scratch; migration relative to mock: higher = more scratch area covered than mock; nuclei per well: higher = more cells in the well
# Active means: 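Migration changed when robust z exceeds 2 or falls below -2 and mean nuclei number is at least 3300; otherwise not called changed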
# Meaning of the calls: active = migration changed; inactive = no migration change, or too few cells
# Here is an unselected part of about 18,000 deposited reagents. Of all reagents, about 1,030 (5.7%) were called active. 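Inactive calls also include pools with fewer than 3300 nuclei, whose migration was not assessed.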 Raw values vary from plate to plate and are shown uncorrected. Entries without a mark were called inactive. Reagent sequences are not shown.
gene,migration robust z-score,migration class with cell-count check,migration relative to mock,"nuclei per well, duplicate mean"
S100A11,0.38,migration z between -2 and 2; enough cells,0.98,5854
CDCP1,-1.04,migration z between -2 and 2; enough cells,0.61,4148
KDM3A,-1.49,migration z between -2 and 2; enough cells,0.5,5938
TXK,0,migration z between -2 and 2; enough cells,0.8,4595
RRAGB,1.01,migration z between -2 and 2; enough cells,1,5054
ASF1B,-0.96,migration z between -2 and 2; enough cells,0.64,7764
ZNF621,0.71,migration z between -2 and 2; enough cells,1.07,5832
RS1,0.82,migration z between -2 and 2; enough cells,1.09,6506
NFU1,-2.17 (active),migration z below -2; enough cells,0.31,4000
APOE,-2.28 (active),migration z below -2; enough cells,0.36,6351
SLC37A1,-0.05,migration z between -2 and 2; enough cells,0.8,4707
CFAP53,2.47 (active),migration z above 2; enough cells,1.52,6934
PDCL,-2,migration z between -2 and 2; enough cells,0.42,5233
FDPS,0.56,migration z between -2 and 2; enough cells,1.03,7277
ZNF415,1.35,migration z between -2 and 2; enough cells,1.23,5651
CPVL,0.83,migration z between -2 and 2; enough cells,0.96,5360
KNOP1,2.41 (active),migration z above 2; enough cells,1.51,5912
ASIP,0.19,migration z between -2 and 2; enough cells,0.93,4842
ADAR,-1.22,migration z between -2 and 2; enough cells,0.57,5470
TNNT1,1.12,migration z between -2 and 2; enough cells,1.17,5524
SLC7A11,1.72,migration z between -2 and 2; enough cells,1.14,6301
HNRNPR,1.06,migration z between -2 and 2; enough cells,1.16,6864
MRPS25,1.58,migration z between -2 and 2; enough cells,1.29,5466
COMMD3,-0.36,migration z between -2 and 2; enough cells,0.74,3628
TRMT44,1.4,migration z between -2 and 2; enough cells,1.25,5626
ZCCHC7,-1.55,migration z between -2 and 2; enough cells,0.48,4862
KRTAP2-4,-1.58,migration z between -2 and 2; enough cells,0.48,5294
TMX4,0.21,migration z between -2 and 2; enough cells,0.84,5885
GPR61,-0.78,migration z between -2 and 2; enough cells,0.66,5258
PDLIM1,0.83,migration z between -2 and 2; enough cells,0.97,4541
TRIM40,-0.55,migration z between -2 and 2; enough cells,0.7,4998
KHSRP,-0.05,migration z between -2 and 2; enough cells,0.8,5655
TRIM34,-0.88,migration z between -2 and 2; enough cells,0.66,5432
DMRTC2,0.23,migration z between -2 and 2; enough cells,0.94,5788
CC2D1B,-0.05,migration z between -2 and 2; enough cells,0.88,7236
ITSN2,-0.97,migration z between -2 and 2; enough cells,0.64,4950
GBP1,-1.04,migration z between -2 and 2; enough cells,0.61,5366
HTR1E,-1.29,migration z between -2 and 2; enough cells,0.55,3908
CRTC3,-3.26 (active),migration z below -2; enough cells,0.02,3607
